This passage reports survivor count and T/C results from PubChem BioAssay AID194 (DTP/NCI, 2004).

This experiment concerns BDF1 mice, B16 melanoma s.c., survival/tumor T/C. Put plainly: NCI In Vivo Anticancer Drug Screen. Data for tumor model B16 Melanoma (subcutaneous) in B6D2F1 (BDF1) mice. As for the experimental part:
The antitumor activity of compounds was measured in mice bearing transplantable tumors. Survival or tumor size were measured and the results are expressed as the measurement made in the treated group (T) divided by the measurement made in the vehicle treated control group (C). The tumor model used in this assay is B16 Melanoma (subcutaneous) in B6D2F1 (BDF1) mice

The mark [1] stands for this setting: T/C endpoint: median survival time, dose: 8.0 mg/kg/injection, schedule: Q01DX009 (ip), vehicle: saline, higher T/C = longer survival.
Where [2] appears, read: T/C endpoint: median survival time, dose: 4.0 mg/kg/injection, schedule: Q01DX009 (ip), vehicle: Klucel (hydroxypropylcellulose) (HPC), higher T/C = longer survival.
Setting [3] is: T/C endpoint: median survival time, dose: 8.0 mg/kg/injection, schedule: Q01DX009 (ip), vehicle: Klucel (hydroxypropylcellulose) (HPC), higher T/C = longer survival.
Setting [4] is: T/C endpoint: median survival time, dose: 16.0 mg/kg/injection, schedule: Q01DX009 (ip), vehicle: Klucel (hydroxypropylcellulose) (HPC), higher T/C = longer survival.
Setting [5] is: T/C endpoint: median survival time, dose: 25.0 mg/kg/injection, schedule: Q01DX001 (ip), vehicle: Klucel (hydroxypropylcellulose) (HPC), higher T/C = longer survival.
[6] abbreviates: T/C endpoint: median survival time, dose: 32.0 mg/kg/injection, schedule: Q01DX009 (ip), vehicle: Klucel (hydroxypropylcellulose) (HPC), higher T/C = longer survival.
Setting [7] is: T/C endpoint: median survival time, dose: 50.0 mg/kg/injection, schedule: Q01DX001 (ip), vehicle: Klucel (hydroxypropylcellulose) (HPC), higher T/C = longer survival.
Setting [8] is: T/C endpoint: median survival time, dose: 100.0 mg/kg/injection, schedule: Q01DX001 (ip), vehicle: Klucel (hydroxypropylcellulose) (HPC), higher T/C = longer survival.
Where [9] appears, read: T/C endpoint: median survival time, dose: 5.0 mg/kg/injection, schedule: Q01DX009 (ip), vehicle: saline, higher T/C = longer survival.

The list does not hold the whole screen: it is rich in T/C values a quarter to a half above the control, in often repeated tests (any T/C) and in doses without a T/C. Other doses and runs of a compound stand elsewhere. T/C is the treated group as % of the vehicle group. Schedule codes are those of the source, read here as Q, the interval in days (D) or hours (H), X, the number of doses. Some doses were run more than once; their values stand side by side, smallest first. Some T/C values are followed by the survivors on the day toxicity was checked, most often the fifth; without a count, all were alive then. Some entries give survivors of the animals treated and no T/C: the source holds a T/C of zero for them, seemingly a mark for toxic or unscored doses. Some doses without a T/C left all or most animals alive at the check, yet need not have been tolerated: the source hardly ever lists a survival T/C far under the control, and the zero likely stands for such cases as well. Counts of survivors are from the toxicity check (mostly the fifth day) where no day follows; animals may have died later. Where survival is the endpoint, this PubChem deposit counts one and a half times the control or more as active, and values a quarter to a half above the control carry no call in these data; other NCI protocols may use other cut-offs. Brackets with × count equal records among those shown.

As to `O=c1[nH]cc(N(CCCl)CCCl)c(=O)[nH]1`, the survivor count (T/C endpoint: median survival time, dose: 1.0 mg/kg/injection, schedule: Q01DX009 (ip), vehicle: saline with Tween-80, higher T/C = longer survival) is 10 of 10; the survivor count (T/C endpoint: median survival time, dose: 2.0 mg/kg/injection, schedule: Q01DX009 (ip), vehicle: saline with Tween-80, higher T/C = longer survival) is recorded as 9 of 10; the survivor count (T/C endpoint: median survival time, dose: 4.0 mg/kg/injection, schedule: Q01DX009 (ip), vehicle: saline with Tween-80, higher T/C = longer survival) is 5 of 10.

Consider `CC(=O)NNC(=O)c1ccccn1`, for which the survivor count is 10 of 10 (T/C endpoint: median survival time, dose: 25.0 mg/kg/injection, schedule: Q01DX009 (ip), vehicle: Klucel (hydroxypropylcellulose) (HPC), higher T/C = longer survival); 6 of 10 (T/C endpoint: median survival time, dose: 200.0 mg/kg/injection, schedule: Q01DX009 (ip), vehicle: Klucel (hydroxypropylcellulose) (HPC), higher T/C = longer survival); 2 of 10 (T/C endpoint: median survival time, dose: 400.0 mg/kg/injection, schedule: Q01DX009 (ip), vehicle: Klucel (hydroxypropylcellulose) (HPC), higher T/C = longer survival).

For `CCN1/C(=C/C=C/C=C/c2sc3ccccc3[n+]2CC)Sc2ccccc21`, the survivor count is, setting by setting: (T/C endpoint: median survival time, dose: 250.0 micrograms/kg/injection, schedule: Q01DX009 (ip), vehicle: saline, higher T/C = longer survival) 7 of 10; (T/C endpoint: median survival time, dose: 500.0 micrograms/kg/injection, schedule: Q01DX009 (ip), vehicle: saline, higher T/C = longer survival) 2 of 10.

For the compound `CC(=O)Oc1ccccc1C(=O)O`, the T/C (T/C endpoint: median survival time, dose: 16.0 mg/kg/injection, schedule: Q01DX009 (ip), vehicle: saline, higher T/C = longer survival) was 125 % of control. Moreover, for the setting “T/C endpoint: median survival time, dose: 128.0 mg/kg/injection, schedule: Q01DX009 (ip), vehicle: saline, higher T/C = longer survival”, the survivor count is given as 10 of 10.

For `COc1cc(NS(C)(=O)=O)ccc1Nc1c2ccccc2nc2ccccc12`, the survivor count is 10 of 10 (T/C endpoint: median survival time, dose: 4.0 mg/kg/injection, schedule: Q01DX009 (ip), vehicle: other, higher T/C = longer survival) and 9 of 10 (T/C endpoint: median survival time, dose: 8.0 mg/kg/injection, schedule: Q01DX009 (ip), vehicle: other, higher T/C = longer survival).

In the case of `NC(CS/C(Cl)=C/Cl)C(=O)O` (stereo not given), the survivor count is, setting by setting: under setting [1], 10 of 10; (T/C endpoint: median survival time, dose: 12.0 mg/kg/injection, schedule: Q01DX009 (ip), vehicle: saline, higher T/C = longer survival) 10 of 10.

For the compound `O=NN(CCCl)C(=O)NC1CCCCC1`, the T/C reads like this: under setting [2], 100, 108, 110 (2×), 114, 119, 135, 167 % of control; under setting [3], 101, 113, 123, 151, 152, 156 (2×), 185 % of control; under setting [1], 136 % of control; (T/C endpoint: median survival time, dose: 12.5 mg/kg/injection, schedule: Q01DX001 (ip), vehicle: Klucel (hydroxypropylcellulose) (HPC), higher T/C = longer survival) 92, 98, 111, 114, 167 % of control; under setting [4], 86, 109, 112, 128, 155, 174, 179, 230 % of control; under setting [5], 101, 104, 118, 128, 136, 139, 153 % of control. The T/C runs as follows: under setting [6], 86, 90, 96, 98, 110 % of control; under setting [7], 95, 114 (2×), 119, 154, 155, 180, 230 % of control; under setting [8], 102 and 116 % of control (2×); (T/C endpoint: median tumor weight (est.), dose: 25.0 mg/kg/injection, schedule: Q01DX001 (ip), vehicle: Klucel (hydroxypropylcellulose) (HPC), evaluated on day 14, higher T/C = larger tumour) 370 % of control; (T/C endpoint: median tumor weight (est.), dose: 25.0 mg/kg/injection, schedule: Q01DX001 (ip), vehicle: Klucel (hydroxypropylcellulose) (HPC), evaluated on day 15, higher T/C = larger tumour) 7 and 131 % of control; (T/C endpoint: median tumor weight (est.), dose: 25.0 mg/kg/injection, schedule: Q01DX001 (ip), vehicle: Klucel (hydroxypropylcellulose) (HPC), evaluated on day 18, higher T/C = larger tumour) 41 % of control [5 of 6 alive]. In addition, the T/C is, setting by setting: (T/C endpoint: median tumor weight (est.), dose: 50.0 mg/kg/injection, schedule: Q01DX001 (ip), vehicle: Klucel (hydroxypropylcellulose) (HPC), evaluated on day 14, higher T/C = larger tumour) 145 % of control; (T/C endpoint: median tumor weight (est.), dose: 50.0 mg/kg/injection, schedule: Q01DX001 (ip), vehicle: Klucel (hydroxypropylcellulose) (HPC), evaluated on day 15, higher T/C = larger tumour) 142 % of control; (T/C endpoint: median tumor weight (est.), dose: 100.0 mg/kg/injection, schedule: Q01DX001 (ip), vehicle: Klucel (hydroxypropylcellulose) (HPC), evaluated on day 15, higher T/C = larger tumour) 131 % of control. In addition, the survivor count was 2 of 10 on day 55 (T/C endpoint: median survival time, dose: 24.0 mg/kg/injection, schedule: Q01DX007 (ip), vehicle: Klucel (hydroxypropylcellulose) (HPC), higher T/C = longer survival); 5 of 6 and 6 of 6 under setting [5]; 10 of 10 and 6 of 6 under setting [6]; 1 of 10 on day 55 (T/C endpoint: median survival time, dose: 40.0 mg/kg/injection, schedule: Q01DX007 (ip), vehicle: Klucel (hydroxypropylcellulose) (HPC), higher T/C = longer survival); 6 of 6 under setting [7]; 8 of 10 (T/C endpoint: median survival time, dose: 64.0 mg/kg/injection, schedule: Q01DX009 (ip), vehicle: Klucel (hydroxypropylcellulose) (HPC), higher T/C = longer survival). Also, the survivor count under setting [8] is 5 of 6 and 6 of 6.

As to `COC12C(COC(N)=O)C3=C(C(=O)C(C)=C(N)C3=O)N1CC1C2N1C` (stereo not given), the T/C is 138 % of control [9 of 10 alive] (T/C endpoint: median survival time, dose: 2.0 mg/kg/injection, schedule: Q01DX009 (ip), vehicle: Klucel (hydroxypropylcellulose) (HPC), higher T/C = longer survival); 127 and 129 % of control under setting [2]. For the same compound, the survivor count is recorded as 10 of 10 under setting [3], 10 of 10 under setting [4] and 10 of 10 under setting [6].

Take `CCSC(=O)N1c2ccc(OC)cc2C=CC1C#N` (stereo not given): the T/C (T/C endpoint: median survival time, dose: 400.0 mg/kg/injection, schedule: Q01DX009 (ip), vehicle: saline with Tween-80, higher T/C = longer survival) is 139 % of control.

`NC(=O)c1[nH]nc(C2OC(CO)C(O)C2O)c1O` (stereo not given): the survivor count (T/C endpoint: median survival time, dose: 2.5 mg/kg/injection, schedule: Q01DX009 (ip), vehicle: saline, higher T/C = longer survival) is 10 of 10 and the survivor count under setting [9] is given as 10 of 10.

As for `CN(N=O)C(=O)N[C@@H](C=O)[C@@H](O)[C@H](O)[C@H](O)CO`, the survivor count (T/C endpoint: median survival time, dose: 160.0 mg/kg/injection, schedule: Q01DX009 (ip), vehicle: other, higher T/C = longer survival) is 10 of 10.

In the case of `CCCCS(=O)CC(CO)NC(=O)/C=C/c1c(C)[nH]c(=O)[nH]c1=O` (stereo not given), the T/C (T/C endpoint: median survival time, dose: 2.5 mg/kg/injection, schedule: Q01DX009 (ip), vehicle: water, higher T/C = longer survival) is 139 % of control [9 of 10 alive]. Moreover, the survivor count (T/C endpoint: median survival time, dose: 20.0 mg/kg/injection, schedule: Q01DX009 (ip), vehicle: water, higher T/C = longer survival) is 4 of 10.

`CCCCC[C@H](O)/C=C/[C@H]1[C@H](O)CC(=O)[C@@H]1C/C=C\CCCC(=O)O`: the survivor count (T/C endpoint: median survival time, dose: 1.5 mg/kg/injection, schedule: Q04DX002 (ip), vehicle: Klucel (hydroxypropylcellulose) (HPC), higher T/C = longer survival) is 3 of 3; the survivor count (T/C endpoint: median survival time, dose: 12.0 mg/kg/injection, schedule: Q04DX002 (ip), vehicle: Klucel (hydroxypropylcellulose) (HPC), higher T/C = longer survival) was 3 of 3; the survivor count (T/C endpoint: median survival time, dose: 25.0 mg/kg/injection, schedule: Q04DX002 (ip), vehicle: saline with Tween-80, higher T/C = longer survival) was 2 of 3; the survivor count (T/C endpoint: median survival time, dose: 50.0 mg/kg/injection, schedule: Q04DX002 (ip), vehicle: saline with Tween-80, higher T/C = longer survival) was 2 of 3; the survivor count (T/C endpoint: median survival time, dose: 100.0 mg/kg/injection, schedule: Q04DX002 (ip), vehicle: saline with Tween-80, higher T/C = longer survival) was 0 of 3. Besides, the T/C (T/C endpoint: median survival time, dose: 24.0 mg/kg/injection, schedule: Q04DX002 (ip), vehicle: Klucel (hydroxypropylcellulose) (HPC), higher T/C = longer survival) is 131 % of control.

Take `CN[C@H]1CCc2cc(OC)c(OC)c(OC)c2-c2ccc(OC)c(=O)cc21`: the T/C under setting [9] was 133 % of control. Further, the survivor count (T/C endpoint: median survival time, dose: 20.0 mg/kg/injection, schedule: Q01DX009 (ip), vehicle: saline, higher T/C = longer survival) is on record as 10 of 10.
